PubChem BioAssay AID1259254 | NCATS, 2017

- Aim: 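Gene knock-downs that lead to re-replication, shown by excess G2 DNA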 (primary screen)
- Cell system: human HCT116 colorectal cancer cells
- Knock-down reagent: single siRNA against human genes
- Timing: 3 days
- Read-out: 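Imaged Hoechst DNA stain sorts each cell into a cycle phase by DNA amount; per plate, G2 fraction set to 0% for non-targeting and 100% for GMNN siRNA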
- Reading the numbers: G2 robust z-score and G2 cells, % of GMNN control: higher = more G2 cells, more excess DNA replication; raw share of cells in G2: higher = larger share of cells with G2 DNA content
- Call rule: 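An siRNA counts as active if its G2 robust z-score lies at least 5 MADs above the screen median; here such calls match roughly 38% of GMNN control or more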
This is a random part of about 59,000 deposited reagents. About 1,550 of all reagents (2.6%) were called active. 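G2 share is only a proxy for re-replication; each gene was hit by three separate siRNAs, and active genes were retested.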 Raw values vary from plate to plate and are shown uncorrected. A number with no mark means an inactive call. The numbers tell different reagents against one gene apart. Not stated in the record: the amount of reagent.

no.	gene symbol	reagent	G2 robust z-score	G2 cells, % of GMNN control	raw share of cells in G2 (%)
1	ABCC10	1	1.41	12.9	11.7
2	ABCC10	2	0.599	7.18	8.05
3	ABCC10	3	0.00226	2.98	5.61
4	TTBK1	1	-1.13	-5.01	4.03
5	TTBK1	2	1.91	16.4	11.2
6	TTBK1	3	-0.247	1.23	4.08
7	ARL5B	1	-0.781	-2.53	4.75
8	ARL5B	2	-0.79	-2.59	3.75
9	ARL5B	3	-1.2	-5.48	2.4
10	SEMA5A	1	1.12	10.8	8.59
11	SEMA5A	2	9.16 (active)	67.4	28.9
12	SEMA5A	3	0.225	4.55	6.6
13	CCDC191	1	-0.463	-0.292	4.23
14	CCDC191	2	-0.956	-3.76	2.66
15	CCDC191	3	-0.281	0.99	3.34
16	PPP2R2D	1	1.28	12	7.11
17	PPP2R2D	2	-0.285	0.965	5.11
18	PPP2R2D	3	1.11	10.8	7.55
19	CAPN1	1	-0.478	-0.393	5.42
20	CAPN1	2	0.594	7.14	7.44
21	CAPN1	3	-0.168	1.78	4.58
22	LRRC78P	1	1.15	11.1	7.95
23	LRRC78P	2	1.26	11.8	7.61
24	LRRC78P	3	0.926	9.48	6.05
25	RHBDD2	1	0.029	3.17	4.03
26	RHBDD2	2	-0.12	2.12	5.18
27	RHBDD2	3	0.619	7.32	7.96
28	TKT	1	-0.434	-0.0893	4.34
29	TKT	2	7.2 (active)	53.7	22.9
30	TKT	3	-0.0784	2.42	6.17
31	MRI1	1	-0.695	-1.92	3.47
32	MRI1	2	-1.31	-6.26	1.6
33	MRI1	3	-0.692	-1.9	1.83
34	HECTD1	1	-0.799	-2.65	3.12
35	HECTD1	2	-0.422	-0.00513	4.19
36	HECTD1	3	-0.0116	2.89	7.47
37	TNFRSF10B	1	1.1	10.7	9.02
38	TNFRSF10B	2	0.527	6.68	7.1
39	TNFRSF10B	3	-0.0467	2.64	5.74
40	TERF1	1	4.79	36.6	18.7
41	TERF1	2	-0.0322	2.74	5.06
42	TERF1	3	2.75	22.3	12.6
43	DDIAS	1	-0.366	0.392	3.72
44	DDIAS	2	-1.01	-4.11	1.72
45	DDIAS	3	-0.725	-2.13	2.51
46	COX7B	1	3.74	29.3	15.7
47	COX7B	2	-0.754	-2.34	3.29
48	COX7B	3	1.16	11.1	8.93

4 entries from above, set out differently:
gene symbol,reagent,G2 robust z-score,"G2 cells, % of GMNN control",raw share of cells in G2 (%)
ABCC10,2,0.599,7.18,8.05
ABCC10,3,0.00226,2.98,5.61
TTBK1,1,-1.13,-5.01,4.03
TTBK1,2,1.91,16.4,11.2
